The numbers were not newly measured in patent US7671089B2 (XenoPort, Inc., priority 2004, dated 2010), which cites them from elsewhere.

The conditions of this data set: patients.

Molecules are shown by their SMILES. Where two headings read alike, the source gives them in different places.

As for `N[C@@H](Cc1ccc(O)c(O)c1)C(=O)O` [levodopa, L-3,4-dihydroxyphenylalanine], the “half-life of levodopa in the plasma” value was “about 50 min” (administered alone) and 1 to 2 h (given with carbidopa).
